Experimental data: paper PMC12867750
No constants are given. Whether binding was seen depends on the method and setting. Binding calls can cover weak binding; strength is not graded here. For some of these results: Binding seen in cells or lysates may run through a third protein. For some of these results: Tags and fused reporters may be left off the sequences shown.

Key:
[1] = target: T1, N-terminally truncated SLN1 protein (∆SLN1) (barley (Hordeum vulgare)) (UniProt Q8W127); assay: two-hybrid; pairwise tests in MaV203 yeast; growth spotted on SD-Leu-Trp-His with 50 and 100 mM 3-AT and on SD-Leu-Trp-Ura, 30 °C for 72 h, three biological replicates
T1 sequence: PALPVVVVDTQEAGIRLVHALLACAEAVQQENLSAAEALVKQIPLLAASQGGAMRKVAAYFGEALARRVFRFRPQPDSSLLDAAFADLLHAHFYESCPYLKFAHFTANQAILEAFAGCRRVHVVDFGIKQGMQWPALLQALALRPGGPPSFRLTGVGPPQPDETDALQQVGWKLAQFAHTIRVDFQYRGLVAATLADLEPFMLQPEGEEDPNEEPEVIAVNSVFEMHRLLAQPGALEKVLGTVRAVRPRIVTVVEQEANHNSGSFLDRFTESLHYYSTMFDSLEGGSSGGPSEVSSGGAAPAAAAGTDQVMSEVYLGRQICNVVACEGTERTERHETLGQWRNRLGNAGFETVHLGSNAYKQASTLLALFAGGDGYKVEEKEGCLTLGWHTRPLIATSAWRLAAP

[2] = target: T2, full-length RHT-D1, BiFC fusion (wheat (Triticum aestivum)) (UniProt Q9ST59); assay: split reporter; BiFC in N. benthamiana leaves infiltrated with A. tumefaciens GV3101, confocal microscopy after 3 d, DAPI staining; signal in the nucleus
T2 sequence: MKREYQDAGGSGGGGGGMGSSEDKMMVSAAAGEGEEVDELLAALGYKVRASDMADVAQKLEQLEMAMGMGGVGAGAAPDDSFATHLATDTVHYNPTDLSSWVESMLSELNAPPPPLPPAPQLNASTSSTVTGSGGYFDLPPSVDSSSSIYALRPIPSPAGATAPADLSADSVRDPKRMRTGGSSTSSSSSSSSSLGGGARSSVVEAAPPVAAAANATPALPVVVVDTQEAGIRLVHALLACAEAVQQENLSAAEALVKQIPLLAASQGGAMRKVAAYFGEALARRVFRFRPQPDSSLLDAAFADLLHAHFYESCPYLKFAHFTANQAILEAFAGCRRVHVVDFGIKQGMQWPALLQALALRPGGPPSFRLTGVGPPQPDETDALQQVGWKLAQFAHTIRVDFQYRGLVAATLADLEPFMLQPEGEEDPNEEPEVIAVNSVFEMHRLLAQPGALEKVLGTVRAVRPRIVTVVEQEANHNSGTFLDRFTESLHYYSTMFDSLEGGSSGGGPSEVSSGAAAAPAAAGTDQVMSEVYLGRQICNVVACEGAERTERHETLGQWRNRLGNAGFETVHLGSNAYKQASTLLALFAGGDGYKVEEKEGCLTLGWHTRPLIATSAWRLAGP

| Substance | binding [1] | binding [2] |
| --- | --- | --- |
| HvSDW3 (SEMI-DWARF 3), full-length HORVU.MOREX.r3.2HG0131300 protein (from UniProt F2D0L0) | binds |  |
| HvSDW3 G110E (sdw3e) (barley (Hordeum vulgare)) | binds |  |
| HvSDW3 L404F (sdw3g) (barley (Hordeum vulgare)) | binds |  |
| full-length IDD5-A1, BiFC fusion (wheat (Triticum aestivum)) |  | binds |
